Source: patent US20170042842
The exact form of at least one protein or probe is not confirmed. For part of these data: Negatives hold for the conditions tested. For part of these data: The comparison behind a weaker result is the experiment's own reference, which may not be listed here. For part of these data: Where cells or extracts were used, other partners may take part.

The chains behind the UniProt entries cited, without tags or fusion partners. Where a name states a change or a piece, a line headed by the entry shows the natural chain unless it says otherwise.
UniProt P48432: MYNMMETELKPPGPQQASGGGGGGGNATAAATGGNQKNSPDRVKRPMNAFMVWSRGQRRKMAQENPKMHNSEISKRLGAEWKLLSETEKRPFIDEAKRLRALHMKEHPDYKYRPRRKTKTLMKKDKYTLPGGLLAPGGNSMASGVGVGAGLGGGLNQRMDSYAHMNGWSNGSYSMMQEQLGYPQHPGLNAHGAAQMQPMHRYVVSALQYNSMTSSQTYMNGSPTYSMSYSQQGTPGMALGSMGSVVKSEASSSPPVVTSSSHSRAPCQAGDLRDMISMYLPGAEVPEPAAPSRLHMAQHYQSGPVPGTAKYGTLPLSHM
UniProt P32114: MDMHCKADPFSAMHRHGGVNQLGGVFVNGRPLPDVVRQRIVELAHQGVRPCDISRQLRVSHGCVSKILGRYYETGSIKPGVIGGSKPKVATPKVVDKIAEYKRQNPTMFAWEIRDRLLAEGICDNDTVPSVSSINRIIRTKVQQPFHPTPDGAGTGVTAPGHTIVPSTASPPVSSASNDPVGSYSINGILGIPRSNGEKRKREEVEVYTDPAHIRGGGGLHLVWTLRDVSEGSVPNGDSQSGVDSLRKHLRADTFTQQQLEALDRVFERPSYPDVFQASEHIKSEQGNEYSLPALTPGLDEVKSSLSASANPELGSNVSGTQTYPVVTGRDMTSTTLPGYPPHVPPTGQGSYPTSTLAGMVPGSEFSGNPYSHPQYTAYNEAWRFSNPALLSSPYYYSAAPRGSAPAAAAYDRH

Legend:
Sox2 [1] = target: Sox2 (UniProt P48432); assay: activity in cells; details: Sox2 alone gives no activation of the reporter; protein in cells; protein details: transfected cDNA in OC-1/HEK/IEC6 cells; only the site is given
Pax2 [2] = target: Pax2 (UniProt P32114); assay: activity in cells; details: Pax2 alone gives no activation of the reporter; protein in cells; protein details: transfected cDNA in OC-1/HEK/IEC6 cells; only the site is given
[3] = test system: Pax2 + Sox2 (co-expressed); assay: activity in cells; details: protein in cells, protein details: co-transfected cDNAs, only the site is given
Sox2 [4] = target: Sox2 (UniProt P48432); assay: binding assay; details: ChIP-PCR in OC-1 and HEK cells; control serum negative; 4x-site construct also precipitated; protein in cells; protein details: transfected cDNA in OC-1/HEK/IEC6 cells
Pax2 [5] = target: Pax2 (UniProt P32114); assay: binding assay; details: ChIP-PCR in OC-1 and HEK cells; IgG control negative; 4x-site construct also precipitated; reduced by Pax2 or Sox2 siRNA; protein in cells; protein details: transfected cDNA in OC-1/HEK/IEC6 cells

Sequence | activity on this sequence (Sox2 [1]) | activity on this sequence (Pax2 [2]) | activity on this sequence ([3]; luciferase reporter, not activated by Pax2 and Sox2 together) | activity on this sequence ([3]; 4x-site luciferase reporter in IEC6, activation doubled by co-transfection, 1 ng each) | binding result (Sox2 [4]) | binding result (Pax2 [5]) | activity on this sequence ([3]; luciferase reporter, reduced activity, still activated by Pax2 and Sox2 together)
CCAAGTAAAGTAAAGCTTAGGCACTTCTTAAAGTAA (double strand) [Mutation 2 (both Sox2 and Pax2 sites mutated)] | not active | not active | not active | – | – | – | –
CCAAACAAACAAAGAGTCAGCACTTCTTAAAGTAA (double strand) | – | – | – | active | binds | binds | –
CCAAACAAACAAATGACTGACGAGTCAGCACTTCTTAAAGTAA (double strand) [Mutation 1 (8 bases added between Sox2 and Pax2 sites)] | not active | not active | – | – | – | – | less active
